{"source": "the supplement of paper PMC8007513", "note": "Some of the results follow. Most values come without repeats; read them as rough."}
{"test_system": "Saccharomyces cerevisiae BY4743", "experiment": "growth (OD600) with compound + IPBC relative to untreated control; higher = less growth inhibition", "conditions": "compound concentration: 133 uM; IPBC concentration: 0.5 ug/ml; 20 h", "method": "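NMCCC compounds (133 uM) combined with IPBC (0.5 ug/ml) against Saccharomyces cerevisiae BY4743 in YPD, 96-well plates. Growth was read as OD600 at 20 h and expressed as % of the untreated control. Single pass.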", "units": {"growth": "%"}}
{"smiles": "Cc1c(C(=O)NC(C)CCc2ccccc2)oc2c1C(=O)CCC2", "note": "(configuration not stated) + CCCCNC(=O)OCC#CI [3-iodo-2-propynyl butylcarbamate (IPBC)]", "growth": 99.3}
{"smiles": "Cc1nn(C)c(C)c1NS(=O)(=O)c1cccc(C#N)c1", "note": "+ CCCCNC(=O)OCC#CI [3-iodo-2-propynyl butylcarbamate (IPBC)]", "growth": 99.9}
{"smiles": "CCCn1c(=O)[nH]c(=O)c2c3c(cnc21)C(=O)CCC3", "note": "+ CCCCNC(=O)OCC#CI [3-iodo-2-propynyl butylcarbamate (IPBC)]", "growth": 86.9}
{"smiles": "Cc1ccc(C)c(OCC(=O)N2CCc3ccccc3C2)c1", "note": "+ CCCCNC(=O)OCC#CI [3-iodo-2-propynyl butylcarbamate (IPBC)]", "growth": 92.1}
{"smiles": "CCOc1ccc(NC(C)=O)cc1S(=O)(=O)N1CC(C(=O)N(C)C)Oc2ccccc21", "note": "(configuration not stated) + CCCCNC(=O)OCC#CI [3-iodo-2-propynyl butylcarbamate (IPBC)]", "growth": 112}
{"smiles": "Cc1noc(C)c1S(=O)(=O)NCCC(=O)N(C)Cc1ccc2c(c1)OCCO2", "note": "+ CCCCNC(=O)OCC#CI [3-iodo-2-propynyl butylcarbamate (IPBC)]", "growth": 104}
{"smiles": "COC(=O)c1cc(S(=O)(=O)N2CCN(C3CCCCC3)CC2)c[nH]1", "note": "+ CCCCNC(=O)OCC#CI [3-iodo-2-propynyl butylcarbamate (IPBC)]", "growth": 100}
{"smiles": "NCCc1c(-c2ccccc2)nn(-c2ccccc2)c1O", "note": "+ CCCCNC(=O)OCC#CI [3-iodo-2-propynyl butylcarbamate (IPBC)]", "growth": 97.5}
{"smiles": "CCC(C)[C@H](N)c1nnc(SCc2ccc(Cl)c(Cl)c2)o1", "note": "(some centres not stated) + CCCCNC(=O)OCC#CI [3-iodo-2-propynyl butylcarbamate (IPBC)]", "growth": 49.4}
{"smiles": "COC(=O)CCN1C(=O)\\C=C(\\C)C2=C[N](C)N=C12", "note": "+ CCCCNC(=O)OCC#CI [3-iodo-2-propynyl butylcarbamate (IPBC)]", "growth": 92.7}
{"smiles": "CCN1\\C=C(\\C#N)C(=O)N(CC(=O)NC2=CC=C(C)C=C2Cl)C1=O", "note": "+ CCCCNC(=O)OCC#CI [3-iodo-2-propynyl butylcarbamate (IPBC)]", "growth": 111}
{"smiles": "CCN(CC)S(=O)(=O)c1cc(C(=O)NCc2cn3cc(Cl)ccc3n2)ccc1Cl", "note": "+ CCCCNC(=O)OCC#CI [3-iodo-2-propynyl butylcarbamate (IPBC)]", "growth": 110}
{"smiles": "CCCn1c(=O)n(-c2ccccc2)c(=O)c2ccccc21", "note": "+ CCCCNC(=O)OCC#CI [3-iodo-2-propynyl butylcarbamate (IPBC)]", "growth": 102}
{"smiles": "O=C\\1CC(N\\C(=N1)N2CCOCC2)C(=O)NC3=CC=CC=C3", "note": "(configuration not stated) + CCCCNC(=O)OCC#CI [3-iodo-2-propynyl butylcarbamate (IPBC)]", "growth": 96.5}
{"smiles": "COc1cc(OC)c(NC(=O)CCS(=O)(=O)c2ccc3c(c2)NC(=O)C(C)S3)cc1Cl", "note": "(configuration not stated) + CCCCNC(=O)OCC#CI [3-iodo-2-propynyl butylcarbamate (IPBC)]", "growth": 104}
{"smiles": "C\\C1=C\\C(C)(C)N2C(=O)C(=O)C3=CC(=CC1=C23)O", "note": "+ CCCCNC(=O)OCC#CI [3-iodo-2-propynyl butylcarbamate (IPBC)]", "growth": 84.4}
{"smiles": "CCCN(Cc1cccs1)C(=O)Nc1cc(Cl)ccc1OC", "note": "+ CCCCNC(=O)OCC#CI [3-iodo-2-propynyl butylcarbamate (IPBC)]", "growth": 74.7}
{"smiles": "CC(C)C[C@H](NC(=O)N1CCc2ccccc21)C(=O)O", "note": "+ CCCCNC(=O)OCC#CI [3-iodo-2-propynyl butylcarbamate (IPBC)]", "growth": 87.6}
{"smiles": "Cc1c(C)n(C(=O)CSc2nc[nH]n2)c2ccccc12", "note": "+ CCCCNC(=O)OCC#CI [3-iodo-2-propynyl butylcarbamate (IPBC)]", "growth": 80.6}
{"smiles": "CCOc1ccccc1NC(=O)c1cnn2cccnc12", "note": "+ CCCCNC(=O)OCC#CI [3-iodo-2-propynyl butylcarbamate (IPBC)]", "growth": 99.9}
{"smiles": "CCOC(=O)Nc1ccc(C(=O)Nc2ccc(N3CCOCC3)nc2)cc1", "note": "+ CCCCNC(=O)OCC#CI [3-iodo-2-propynyl butylcarbamate (IPBC)]", "growth": 83.6}
{"smiles": "CCOC(=O)C1=C(C)N=C(C)/C(=C(/O)OCC)C1c1ccc(C)o1", "note": "(configuration not stated) + CCCCNC(=O)OCC#CI [3-iodo-2-propynyl butylcarbamate (IPBC)]", "growth": 77.7}
